# According to publication PMC9743148 (Annals of oncology : official journal of the European …, 2020):
# Tests used:
# advanced solid tumors = conditions: one responder with iCCA with disease progression on prior infigratinib (BGJ398)
# FGFR1–4 = conditions: in vitro; cited from earlier work
# [1] = tested on: FGFR mutants resistant to ATP-competitive inhibitors; conditions: cell line experiments; cited from earlier work
smiles,measurement,setting,value
C=CC(=O)N1CC[C@H](n2nc(C#Cc3cc(OC)cc(OC)c3)c3c(N)ncnc32)C1 [futibatinib],Duration of futibatinib treatment,advanced solid tumors,15.6 months
same,Concentrations inhibiting all four FGFR subtypes,FGFR1–4,subnanomolar
same,Inhibition of FGFR mutants resistant to ATP-competitive inhibitors,[1],nearly the same potency as wild-type FGFR
